No constants are given. Whether binding was seen depends on the method and setting. In cells and extracts the contact can be indirect. These calls come from enrichment with a bait or labelling near it, and not all partners need be listed.
Experiments:
cyclin D1–APEX [1] = target: cyclin D1–APEX (UniProt P25322); assay: proximity labelling; APEX in RA-induced N2A cells stably expressing cyclin D1–APEX; biotin-phenol with H2O2 (B+H) against biotin-phenol alone (B); streptavidin beads, mass spectrometry
cyclin D1–APEX [2] = target: cyclin D1–APEX (UniProt P25322); assay: proximity labelling; APEX in mESCs incubated 2 d with cyclin D1–APEX EVs in N2B27 medium; biotin-phenol with H2O2; streptavidin pull-down, mass spectrometry and immunoblot

Sequences of proteins named here, by UniProt entry; tags and fusion partners are left off. Residues count along the entry.
UniProt P25322: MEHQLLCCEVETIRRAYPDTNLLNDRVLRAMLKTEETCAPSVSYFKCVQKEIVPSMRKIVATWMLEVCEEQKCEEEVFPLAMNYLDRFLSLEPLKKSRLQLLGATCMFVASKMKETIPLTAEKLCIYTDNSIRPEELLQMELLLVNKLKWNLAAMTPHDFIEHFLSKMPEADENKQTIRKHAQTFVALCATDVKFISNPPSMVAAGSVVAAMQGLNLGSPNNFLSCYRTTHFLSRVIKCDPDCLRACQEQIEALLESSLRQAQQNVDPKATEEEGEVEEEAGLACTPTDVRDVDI
UniProt P08113, residues 22-802: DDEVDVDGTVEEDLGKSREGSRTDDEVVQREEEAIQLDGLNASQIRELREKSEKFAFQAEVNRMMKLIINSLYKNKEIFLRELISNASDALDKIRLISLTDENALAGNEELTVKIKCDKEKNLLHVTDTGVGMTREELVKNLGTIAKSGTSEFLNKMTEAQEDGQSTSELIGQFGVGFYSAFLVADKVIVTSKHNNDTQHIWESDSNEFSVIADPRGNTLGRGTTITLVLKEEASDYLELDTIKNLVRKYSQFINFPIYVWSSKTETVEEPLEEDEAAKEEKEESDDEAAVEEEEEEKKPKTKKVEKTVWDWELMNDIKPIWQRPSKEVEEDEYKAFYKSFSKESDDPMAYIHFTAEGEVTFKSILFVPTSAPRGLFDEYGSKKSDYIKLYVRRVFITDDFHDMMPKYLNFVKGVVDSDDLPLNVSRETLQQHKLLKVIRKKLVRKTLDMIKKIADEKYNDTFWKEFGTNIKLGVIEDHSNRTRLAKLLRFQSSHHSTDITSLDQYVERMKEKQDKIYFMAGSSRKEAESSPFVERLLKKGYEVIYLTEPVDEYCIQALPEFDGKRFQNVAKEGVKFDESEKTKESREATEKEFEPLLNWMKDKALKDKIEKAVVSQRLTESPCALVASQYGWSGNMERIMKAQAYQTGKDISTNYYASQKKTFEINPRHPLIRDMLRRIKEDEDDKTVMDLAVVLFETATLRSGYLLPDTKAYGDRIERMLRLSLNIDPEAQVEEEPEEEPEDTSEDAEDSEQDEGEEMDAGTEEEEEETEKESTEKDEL
UniProt P09405: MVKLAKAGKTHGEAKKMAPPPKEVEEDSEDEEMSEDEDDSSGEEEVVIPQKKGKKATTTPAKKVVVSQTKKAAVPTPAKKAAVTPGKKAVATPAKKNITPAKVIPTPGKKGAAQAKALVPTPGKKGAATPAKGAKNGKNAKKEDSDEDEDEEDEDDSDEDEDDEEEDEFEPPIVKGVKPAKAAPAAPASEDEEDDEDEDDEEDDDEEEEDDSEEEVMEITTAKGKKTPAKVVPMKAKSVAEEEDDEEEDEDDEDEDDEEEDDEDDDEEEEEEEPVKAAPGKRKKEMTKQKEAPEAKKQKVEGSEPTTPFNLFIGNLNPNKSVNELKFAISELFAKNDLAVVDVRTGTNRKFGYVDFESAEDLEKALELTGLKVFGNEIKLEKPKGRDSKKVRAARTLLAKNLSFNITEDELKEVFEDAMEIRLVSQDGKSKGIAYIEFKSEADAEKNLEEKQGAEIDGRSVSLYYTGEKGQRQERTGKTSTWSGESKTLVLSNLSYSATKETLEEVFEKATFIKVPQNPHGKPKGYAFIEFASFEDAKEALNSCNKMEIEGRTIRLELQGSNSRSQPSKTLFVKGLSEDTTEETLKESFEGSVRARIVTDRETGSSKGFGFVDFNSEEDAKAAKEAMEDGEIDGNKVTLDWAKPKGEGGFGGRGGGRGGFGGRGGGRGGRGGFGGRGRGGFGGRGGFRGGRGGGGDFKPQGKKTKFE

| Substance | binding (cyclin D1–APEX [1]) | binding (cyclin D1–APEX [2]) |
| --- | --- | --- |
| Hsp90b1 (from UniProt P08113 22-802) | binds |  |
| nucleolin (from UniProt P09405 1-707) |  | binds |
